These are yes or no findings as the source states them, for the method shown. Binding seen in cells or lysates may run through a third protein. Some entries that bind do so weakly or less than the wild type. Sequences can lack the tags named with a protein.

What all share (assay): co-IP
One test deals with T1, Myc-FLAG-MBNL3 (human) (UniProt Q9NUK0).
T1 sequence: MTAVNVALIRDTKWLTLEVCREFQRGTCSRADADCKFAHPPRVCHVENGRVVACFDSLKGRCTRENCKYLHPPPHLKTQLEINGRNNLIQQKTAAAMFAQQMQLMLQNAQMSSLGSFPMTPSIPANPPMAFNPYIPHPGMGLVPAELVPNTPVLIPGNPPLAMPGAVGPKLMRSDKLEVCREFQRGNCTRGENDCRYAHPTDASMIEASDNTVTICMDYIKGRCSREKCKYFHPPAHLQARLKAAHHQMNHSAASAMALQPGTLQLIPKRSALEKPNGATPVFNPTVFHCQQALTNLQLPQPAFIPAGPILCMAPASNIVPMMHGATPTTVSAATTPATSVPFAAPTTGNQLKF

A further test has as its target T2, Myc-FLAG-RBP5 (human) (UniProt P82980).
T2 sequence: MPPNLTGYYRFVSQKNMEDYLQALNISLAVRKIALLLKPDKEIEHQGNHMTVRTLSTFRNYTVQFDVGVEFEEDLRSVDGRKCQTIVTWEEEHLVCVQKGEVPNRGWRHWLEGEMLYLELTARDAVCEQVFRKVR

For a further test, the target named is T3, His-PGRP3 (human) (UniProt Q96LB9).
T3 sequence: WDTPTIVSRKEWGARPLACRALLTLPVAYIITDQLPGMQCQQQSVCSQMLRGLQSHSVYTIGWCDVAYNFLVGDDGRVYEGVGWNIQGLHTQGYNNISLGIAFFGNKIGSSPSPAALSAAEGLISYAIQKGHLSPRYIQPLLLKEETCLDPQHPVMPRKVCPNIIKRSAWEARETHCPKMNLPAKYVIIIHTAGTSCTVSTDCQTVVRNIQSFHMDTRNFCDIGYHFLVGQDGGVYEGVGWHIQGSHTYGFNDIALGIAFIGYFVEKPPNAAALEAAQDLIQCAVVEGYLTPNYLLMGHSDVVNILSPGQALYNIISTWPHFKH

B1: His-PGRP3 (protein, UniProt Q96LB9 18-341)
chain: WDTPTIVSRKEWGARPLACRALLTLPVAYIITDQLPGMQCQQQSVCSQMLRGLQSHSVYTIGWCDVAYNFLVGDDGRVYEGVGWNIQGLHTQGYNNISLGIAFFGNKIGSSPSPAALSAAEGLISYAIQKGHLSPRYIQPLLLKEETCLDPQHPVMPRKVCPNIIKRSAWEARETHCPKMNLPAKYVIIIHTAGTSCTVSTDCQTVVRNIQSFHMDTRNFCDIGYHFLVGQDGGVYEGVGWHIQGSHTYGFNDIALGIAFIGYFVEKPPNAAALEAAQDLIQCAVVEGYLTPNYLLMGHSDVVNILSPGQALYNIISTWPHFKH
As to B1, the binding result in the test with Myc-FLAG-MBNL3 (human) and with Myc-FLAG-RBP5 (human) was “binds” throughout.

B2: Myc-FLAG-MBNL3 (protein, UniProt Q9NUK0 1-354)
chain: MTAVNVALIRDTKWLTLEVCREFQRGTCSRADADCKFAHPPRVCHVENGRVVACFDSLKGRCTRENCKYLHPPPHLKTQLEINGRNNLIQQKTAAAMFAQQMQLMLQNAQMSSLGSFPMTPSIPANPPMAFNPYIPHPGMGLVPAELVPNTPVLIPGNPPLAMPGAVGPKLMRSDKLEVCREFQRGNCTRGENDCRYAHPTDASMIEASDNTVTICMDYIKGRCSREKCKYFHPPAHLQARLKAAHHQMNHSAASAMALQPGTLQLIPKRSALEKPNGATPVFNPTVFHCQQALTNLQLPQPAFIPAGPILCMAPASNIVPMMHGATPTTVSAATTPATSVPFAAPTTGNQLKF
As to B2, in the test with His-PGRP3 (human), the binding result is reported as “binds”.

B3: Myc-FLAG-RBP5 (protein, UniProt P82980 1-135)
chain: MPPNLTGYYRFVSQKNMEDYLQALNISLAVRKIALLLKPDKEIEHQGNHMTVRTLSTFRNYTVQFDVGVEFEEDLRSVDGRKCQTIVTWEEEHLVCVQKGEVPNRGWRHWLEGEMLYLELTARDAVCEQVFRKVR
As for B3, the binding result in the test with His-PGRP3 (human) is “binds”.
